According to PubChem BioAssay AID743172 (National Center for Advancing Translational Sciences (NCATS), 2013):
The entries are a selection whose mix differs from that of the whole data set. Entries without a call were filed so in the source. Inconclusive results are not listed. The source made the active and inactive calls. The call rests on the fitted dose curve; in most records, active means well fitted activation curve with a large enough effect; inconclusive means small, poorly fitted or top-dose-only effect; inactive means no such curve, though single readings can be large or run the other way.

Experiment: Extended Characterization of HPGD Inhibitors: PGE2 Assay in LNCaP Cells
Details: PGE2 HTRF level, 16 h; at 100 µM (top of the series)
Text: The central role of HPGD is to inactivate prostaglandins such as prostaglandin E2 (PGE2) or prostaglandin D2 (PGD2). These prostaglandins are involved in a number of processes, including inflammation, differentiation, and cellular signaling, which makes HPGD an important target for pharmacological intervention. A number of prostaglandins of particular biological interest have been identified as substrates of HPGD. […] Over-production of PGE2 has been reported to promote tumor-associated neovascularization, cell proliferation, and tumor growth. […] In this orthogonal assay, we set out to measure if compounds were able to increase PGE2 production NIH Chemical Genomics Center [NCGC] NIH Molecular Libraries Probe Centers Network [MLPCN] MLPCN Grant: MH084681 Assay Submitter (PI): Structural Genomics Consortium
A549 cells, LNCaP cells or media were dispensed in 384-well plates (ProxiPlate-384 Plus, PerkinElmer, Shelton, CT) at 5,000 cells/9.9 uL/well using a CappAero384 multichannel pipette (Odense, Denmark). […] Time-resolved fluorescence intensity (320 nm excitation, 615 and 665 nm emission) was measured using an Envision plate reader (PerkinElmer). Data was expressed as the ratio of 665 nm/615 nm emissions. Concentration (pg/mL) of samples were calculated from a 4-parameter logistic calibration curves of the PGE2 standards.

| Structure (SMILES) | PGE2 level, % of control (higher = increase) |
| --- | --- |
| CCOC(=O)c1ccc(-n2cnc3cc(C(=O)N4CCCCC4)ccc32)cc1 | inactive: 450% |
| Cc1cccc(-n2cnc3cc(C(=O)N4CC(C)CC(C)C4)ccc32)c1 (configuration not stated) | 197% |
